Small-molecule microarray binding calls

From ROBIN, a set of small-molecule microarray screens (doi:10.1002/anie.202211358).

Targets, with sequences 5′ to 3′:
T1: PreQ1 riboswitch RNA pseudoknot, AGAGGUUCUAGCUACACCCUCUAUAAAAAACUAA. From B. subtilis. About 170 hits among about 24,000 compounds.
T2: SAM-II riboswitch RNA pseudoknot, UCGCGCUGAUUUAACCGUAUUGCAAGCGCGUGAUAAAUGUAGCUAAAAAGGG. About 200 hits among about 21,000 compounds.
T3: TPP riboswitch RNA three-way junction, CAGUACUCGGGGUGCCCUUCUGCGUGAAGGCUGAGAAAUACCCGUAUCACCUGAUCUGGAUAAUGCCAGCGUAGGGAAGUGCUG. About 160 hits among about 24,000 compounds.

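Each compound is printed as two spots on a slide made to bind it covalently, so it has no test concentration; the read-out is fluorescence of the bound, labelled oligonucleotide. For the PreQ1, TPP and SAM-II riboswitches the laboratory earlier reported (doi:10.1038/s41467-019-09493-3) 1 µM RNA, 2 h, and a rule that included a mean Z-score above 3 (spot signal-to-noise against the whole library), a score well above that on a control array, and duplicate spots agreeing (coefficient of variation under 100). The data file gives only the calls; its cut-offs may differ, and compounds hitting several targets are kept. A missing hit is not proof of no binding, and a hit is not a measured affinity.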 Key: 1 = hit, 0 = tested without a hit. This is an unselected part of the compounds tested. A dash means that no call is listed here.

Compound	T1	T2	T3
CC1(C)CC(=O)C2=C(C1)OC(N)=C(C#N)C2c1cccc(Br)c1 (configuration not stated)	0	0	0
CCCNC1=C(C(N)=O)S(=O)(=O)c2ccccc21	0	-	0
CCC(O)Cn1ncnc1-c1ccc(C#N)cc1 (configuration not stated)	0	0	0
COc1ccc2c(c1OC)C(=O)OC2Nc1ccc(Cl)cc1 (configuration not stated)	0	0	0
CCc1ccccc1NC(=O)Cn1c(-c2nonc2N)nc2ccccc21	0	-	0
O=C(Nc1ccc(Cl)cc1)c1cc2c(cc1O)[nH]c1ccccc12	0	0	0
O=[N+]([O-])c1nc[nH]c1/C=C\c1ccccc1	0	0	0
O=C(CNc1ccc(Cl)cc1)c1ccc(Cl)cc1	0	0	0
S=C1N(c2ccccc2)CN(C2CCCCC2)CN1c1ccccc1	0	0	0
CCOC(=O)c1cnc2c(C)c(Cl)ccc2c1NCCN1CCOCC1	0	0	0
COCc1ccc(C(=O)N2CCC3(CC2)[C@H](O)C[C@@H]3OCCN)s1	0	0	0
Cc1cnc(Nc2ccc(CN3CCOCC3)cc2)nc1Nc1cccc(S(=O)(=O)NC(C)(C)C)c1	0	0	0
CCOC(=O)c1cnn(-c2ccc(C(=O)Nc3ccc(C)c(C)c3)cn2)c1N	0	0	0
COc1ccc(C(=O)C2=C(O)C(=O)N(CCCO)C2c2ccc(OC)cc2)cc1 (configuration not stated)	0	0	0
CC1CC2(C)C(CCC3C4CCC(O)C4(C)CCC32)CC1=NN (configuration not stated)	0	0	0
O=C(C=Cc1c(C(=O)[O-])[nH]c2cc(Cl)cc(Cl)c12)Nc1ccccc1	0	0	0
CCC(O)Cn1nc(-c2ccc(C)o2)nc1-c1scc2c1OCCO2 (configuration not stated)	0	0	0
CC1=C(c2ccc(C(C)C)cc2)S(=O)(=O)N=C1NCCc1ccccc1	0	-	0
CC(N)CC(=O)NCc1cccnc1Oc1cccc(C(F)(F)F)c1 (configuration not stated)	0	0	0
Nc1nc2c(s1)CCc1nonc1-2	0	0	0
CC1(C)CC(=O)C(C(=O)c2ccccc2)=C(NCCO)C1	0	0	0
COc1ccc([C@H]2C[C@@H](C(F)(F)F)n3ncc(C(=O)Nc4cccc(C(C)O)c4)c3N2)cc1OC (some centres not stated)	0	0	0
Cc1cc(NCC2CNCCO2)n2nccc2n1 (configuration not stated)	0	0	0
COc1ccc(S(=O)(=O)Nc2cc(-c3c(O)ccc4ccccc34)c(O)c3ccccc23)cc1	0	0	0
CCOC(=O)CC(=O)NC(C)(C)CCCCC(C)(C)NC(=O)CC(=O)OCC	0	0	0
N#Cc1cnn2c(NC3CCCCC3)c(-c3cccc(Br)c3)[nH]c12	0	-	0
CCc1cc(Nc2cccc3c2CCCC3)n2ncnc2n1	0	0	0
NC1=NC(=O)N2CC12 (configuration not stated)	0	0	0
CC(=O)OCCn1c([N+](=O)[O-])cnc1/C=[N+](\[O-])C1CCCCC1	0	0	0
CC(C)Cc1cc(C(=O)NC2(C(=O)O)CCNC2)on1 (configuration not stated)	0	0	0
CN(C(=O)C1(N)CC1)C1CCCN(CCc2ccccc2)C1 (configuration not stated)	0	0	0
CCN(CC)CCNCC1CCOC(C)(C)C1 (configuration not stated)	0	-	0
O=C1CCCN1CCCNc1ncnc2onc(-c3ccc(Cl)cc3)c12	0	0	0
Nc1c(C(=O)O)nnn1Cc1ccc(Cl)cc1	0	0	0
CN(Cc1csc(-c2ccccc2)n1)C(=O)[C@@H](N)Cc1c[nH]cn1	0	0	0
O=C(NCCO)C1CCN(S(=O)(=O)c2ccccc2)CC1	0	0	0
COc1ccc2ccccc2c1CCNC1CCN(C(=O)C(C)C)CC1	0	0	0
COCCn1cnnc1CCNC(=O)c1cccc(NCc2cccs2)c1	0	0	0
COc1ccc(C2C(C#N)=C(N)OC3=C2C(=O)CCC3)c(OC)c1 (configuration not stated)	0	0	0
CCSc1nc(-c2ccccc2F)nc2c1Cc1c(CO)cnc(C)c1O2	0	-	0
COc1ccc(Cl)cc1Nc1ncnc2sc(C)c(C)c12	0	0	0
Cc1nnc(C(=O)NC(C)(C)c2nc(C(=O)NCc3ccc(F)cc3)c(O)c(=O)n2C)o1	0	0	0
O=C(NCc1csc(-c2cnccn2)n1)C1CNCCO1 (configuration not stated)	0	0	0
Cc1ccc(C)c(OCCN(C)C(=O)CC2COCCN2)c1 (configuration not stated)	0	0	0
CC(C)[C@H](C(=O)Nc1ccc(C(=O)NO)cc1)c1ccccc1	0	0	0
O=S1(=O)C[C@H](NCCCc2ccccc2)[C@@H](S(=O)(=O)c2ccc(F)cc2)C1	0	-	0
Cc1cccc(NCc2nc3ccccc3n2C)c1	0	1	1
CO[C@H]1C[C@@H](O)C12CCN(Cc1cc(=O)c3c(C)ccc(C)c3[nH]1)CC2	0	0	0
C=CCC1(CO)CCCN(c2cnc(C)c(C)n2)C1 (configuration not stated)	0	0	0
O=C(c1ccc2c(c1)CCC2)N1CCC2(CC1)OCCCC2O (configuration not stated)	0	0	0
COc1ccc(-c2cn3c4c(=O)n(C)c(=O)n(C)c4nc3n2CCCO)cc1	0	0	0
O=C(O)[C@@]12CN(CCO)C[C@@H]1CN(S(=O)(=O)N1CCOCC1)C2	0	0	0
CCCCS(=N)(=O)CCC(N)C(=O)O (configuration not stated)	0	0	0
O=c1c2c(nc(NCCCO)n1Cc1ccccc1)-c1ccccc1CC21CCCC1	0	0	0
CC(C)(C)[C@H](NC(=O)c1ccc(N)c(Cl)c1)C(=O)N1CCC[C@@H]1C(=O)N[C@H](C#N)CC(=O)O	0	0	0
Cc1ccc(-c2nc(Cc3cc4c(cc3Cl)OCCO4)n(CCO)n2)o1	0	0	0

6 of the entries, repeated:

Compound	T1	T2	T3
O=C(CNc1ccc(Cl)cc1)c1ccc(Cl)cc1	0	0	0
NC1=NC(=O)N2CC12 (configuration not stated)	0	0	0
CCCCS(=N)(=O)CCC(N)C(=O)O (configuration not stated)	0	0	0
S=C1N(c2ccccc2)CN(C2CCCCC2)CN1c1ccccc1	0	0	0
CC1(C)CC(=O)C2=C(C1)OC(N)=C(C#N)C2c1cccc(Br)c1 (configuration not stated)	0	0	0
Cc1ccc(-c2nc(Cc3cc4c(cc3Cl)OCCO4)n(CCO)n2)o1	0	0	0